According to US20260284208A1, “SYSTEM” (Oxford University Innovation Limited, priority 2023, published 2026):
The source gives many values for each of these; only a part stands here.

System: library of 8,380 IKZF3 degrons (ZF-eGFP/mCherry reporter) in Jurkat cells
Assay: Pooled library screen (FACS, NGS, limma voom LogFC of positive vs negative read counts)
Type: cell-based, human
Experimental: A library of 8,380 IKZF3 degrons was cloned into pLVX-Sprout to create the eGFP/mCherry protein degradation reporter plasmid pool. A lentivirus pool was then generated using the Lenti-X lentiviral vector production method.
Jurkat cells were transduced at a multiplicity of infection of <0.3 with the lentivirus vector library in order to maximise the number of cells with a single integration. Transductions were carried out in 6 well TC-treated cell culture dishes (Falcon) with 3×10^6 cells per well. Cells were incubated for 2 days at 37° C. and 5% CO2 before the supernatant was removed and replaced with fresh media. 6 days post-transduction, mCherry+ cells were isolated via FACS using the FACS Aria Fusion (BD) in a buffer containing PBS (Gibco), 2 mM EDTA (Gibco), 25 mM HEPES (Sigma) and 1% BSA (Sigma). 8 days later, cells were treated with DMSO or a thalidomide analog for 18 hours at 37° C. and 5% CO2. mCherry+GFPlow and NOT(mCherry+GFPlow) cells were sorted by FACS using the FACS Aria Fusion (BD). DMSO treated cells were used to set the mCherry+GFPlow gate and dead cells were excluded from sorting by staining cells with 1 μg/mL DAPI (ThermoFisher). gDNA was isolated using the Maxwell RSC 48 (Promega). gDNA from cells that were unsorted and untreated were also isolated to determine the library representation on the day of compound treatment. Throughout the screen >600× coverage of the library was maintained. 3 biological replicates were carried out with a new transduction taking place each time.
A two-step PCR was used where the first PCR (PCR1) amplified the integrated degron sequence from gDNA and the second PCR (PCR2) added Illumina adaptors and barcodes to permit multiplexing. See Supp F for PCR1 and PCR2 primers. Q5 Hot Start High-Fidelity 2× Master Mix (New England Biolabs) was used for both PCRs. Sufficient gDNA was amplified in PCR1 in order to maintain >600× coverage and amplicons were purified using solid phase reversible immobilization (SPRI) beads (Beckman Coulter). Purified PCR1 products were analysed on the Tapestation 4200 (Agilent) to confirm purity prior to proceeding to PCR2. Sufficient PCR1 product was amplified in PCR2 in order to maintain >600× coverage and amplicons were run on a 2% agarose TAE gel. Target bands were excised and purified using the NucleoSpin Gel and PCR Clean-up Kit (Machery Nagel). Amplicons were analysed on the Tapestation 4200 and quantified using Qubit dsDNA HS kit (ThermoFisher). PCR products were pooled and sequenced as paired-reads on the NovaSeq (Illumina) using a SP2 200 cycles kit (Illumina).
Count distributions, percentage of read mapping, library coverage and replicate correlation per sample were assessed for QC purposes.
To carry out the library screen, we used the same plasmid construct as in our earlier flow cytometry assays, but pooling all 8,380 mutants together into one Jurkat population, ensuring a copy number of one plasmid per cell (FIG. 4B). […] These GFP-negative cells were then separated from the remaining GFP-positive population using fluorescence activated cell sorting (FACS). These two populations were then sequenced and the relative abundance of every mutant in both populations compared to provide a log FC value for each mutant sequence. This value indicated how frequently a sequence is observed in the GFP-negative population relative to the GFP-positive population, and therefore how effective a degron it is for that particular IMID compound.

O=C1CCC(N2C(=O)c3ccc(N4CCOCC4)cc3C2=O)C(=O)N1 (stereo not drawn) [B03]
B03_logFC (Degron-ID 0, SEQ ID NO 4402, 46F_47A_49D_50I_52G_53A_54A_55F_67L_): 2.037 | B03_logFC (Degron-ID 60, SEQ ID NO 3787, 46F_47A_49E_50I_52G_53A_54A_55F_67L_): 3.03 | B03_logFC (Degron-ID 74, SEQ ID NO 3869, 46F_47A_49E_50I_52G_53A_54R_55F_67L): 2.894 | B03_logFC (Degron-ID 75, SEQ ID NO 3923, 46F_47A_49E_50I_52G_53A_54S_55F_67L): 2.802 | B03_logFC (Degron-ID 76, SEQ ID NO 4395, 46F_47A_49E_50I_52G_53A_54T_55F_67L_): 2.045 | B03_logFC (Degron-ID 100, SEQ ID NO 3808, 46F_47A_49E_50V_52G_53A_54A_55F_67L_): 2.993 | B03_logFC (Degron-ID 101, SEQ ID NO 4325, 46F_47A_49E_50V_52G_53A_54C_55F_67L_): 2.16 | B03_logFC (Degron-ID 108, SEQ ID NO 4421, 46F_47A_49E_50V_52G_53A_54K_55F_67L_): 2.017 | B03_logFC (Degron-ID 113, SEQ ID NO 4388, 46F_47A_49E_50V_52G_53A_54Q_55F_67L_): 2.057 | B03_logFC (Degron-ID 114, SEQ ID NO 3785, 46F_47A_49E_50V_52G_53A_54R_55F_67L_): 3.033 | B03_logFC (Degron-ID 116, SEQ ID NO 4406, 46F_47A_49E_50V_52G_53A_54T_55F_67L_): 2.033 | B03_logFC (Degron-ID 117, SEQ ID NO 4403, 46F_47A_49E_50V_52G_53A_54V_55F_67L_): 2.035 | B03_logFC (Degron-ID 132, SEQ ID NO 4276, 46F_47A_49N_50I_52G_53A_54P_55F_67L_): 2.252 | B03_logFC (Degron-ID 135, SEQ ID NO 4410, 46F_47A_49N_50I_52G_53A_54S_55F_67L_): 2.031 | B03_logFC (Degron-ID 137, SEQ ID NO 4389, 46F_47A_49N_50I_52G_53A_54V_55F_67L_): 2.054 | B03_logFC (Degron-ID 180, SEQ ID NO 3842, 46F_47A_49P_50I_52G_53A_54A_55F_67L_): 2.934 | B03_logFC (Degron-ID 181, SEQ ID NO 4368, 46F_47A_49P_50I_52G_53A_54C_55F_67L_): 2.089 | B03_logFC (Degron-ID 192, SEQ ID NO 3786, 46F_47A_49P_50I_52G_53A_54P_55F_67L_): 3.032 | B03_logFC (Degron-ID 220, SEQ ID NO 3886, 46F_47A_49P_50V_52G_53A_54A_55F_67L): 2.873 | B03_logFC (Degron-ID 234, SEQ ID NO 4260, 46F_47A_49P_50V_52G_53A_54R_55F_67L_): 2.277 | B03_logFC (Degron-ID 235, SEQ ID NO 4335, 46F_47A_49P_50V_52G_53A_54S_55F_67L_): 2.15 | B03_logFC (Degron-ID 240, SEQ ID NO 4323, 46F_47C_49D_50I_52G_53A_54A_55F_67L_): 2.171 | B03_logFC (Degron-ID 252, SEQ ID NO 4304, 46F_47C_49D_50I_52G_53A_54P_55F_67L_): 2.215 | B03_logFC (Degron-ID 254, SEQ ID NO 4293, 46F_47C_49D_50I_52G_53A_54R_55F_67L_): 2.233 | B03_logFC (Degron-ID 300, SEQ ID NO 3764, 46F_47C_49E_50I_52G_53A_54A_55F_67L_): 3.101 | B03_logFC (Degron-ID 301, SEQ ID NO 4383, 46F_47C_49E_50I_52G_53A_54C_55F_67L_): 2.063 | B03_logFC (Degron-ID 305, SEQ ID NO 4365, 46F_47C_49E_50I_52G_53A_54G_55F_67L_): 2.093 | B03_logFC (Degron-ID 312, SEQ ID NO 3814, 46F_47C_49E_50I_52G_53A_54P_55F_67L_): 2.986 | B03_logFC (Degron-ID 314, SEQ ID NO 3798, 46F_47C_49E_50I_52G_53A_54R_55F_67L_): 3.011 | B03_logFC (Degron-ID 316, SEQ ID NO 4277, 46F_47C_49E_50I_52G_53A_54T_55F_67L_): 2.25 | B03_logFC (Degron-ID 340, SEQ ID NO 3829, 46F_47C_49E_50V_52G_53A_54A_55F_67L_): 2.957 | B03_logFC (Degron-ID 341, SEQ ID NO 4265, 46F_47C_49E_50V_52G_53A_54C_55F_67L_): 2.267 | B03_logFC (Degron-ID 352, SEQ ID NO 4369, 46F_47C_49E_50V_52G_53A_54P_55F_67L_): 2.088 | B03_logFC (Degron-ID 353, SEQ ID NO 4294, 46F_47C_49E_50V_52G_53A_54Q_55F_67L_): 2.233 | B03_logFC (Degron-ID 354, SEQ ID NO 3795, 46F_47C_49E_50V_52G_53A_54R_55F_67L_): 3.022 | B03_logFC (Degron-ID 355, SEQ ID NO 3899, 46F_47C_49E_50V_52G_53A_54S_55F_67L): 2.852 | B03_logFC (Degron-ID 356, SEQ ID NO 4354, 46F_47C_49E_50V_52G_53A_54T_55F_67L_): 2.117 | B03_logFC (Degron-ID 420, SEQ ID NO 3905, 46F_47C_49P_50I_52G_53A_54A_55F_67L): 2.843 | B03_logFC (Degron-ID 421, SEQ ID NO 4298, 46F_47C_49P_50I_52G_53A_54C_55F_67L_): 2.225 | B03_logFC (Degron-ID 428, SEQ ID NO 4391, 46F_47C_49P_50I_52G_53A_54K_55F_67L_): 2.051 | B03_logFC (Degron-ID 431, SEQ ID NO 4330, 46F_47C_49P_50I_52G_53A_54N_55F_67L_): 2.156 | B03_logFC (Degron-ID 432, SEQ ID NO 3723, 46F_47C_49P_50I_52G_53A_54P_55F_67L_): 3.163
